The target in experiment [1] is Yin Yang 1 (human (endogenous in DLD-1)) (UniProt P25490). The experiment can be described thus: co-IP; YY1 immunoprecipitation: whole lysates incubated with the beads-antibody complex, western blot; DLD-1 cells overexpressing TCONS_00012883 and controls. On the technique in general: Immunoblotting shows a protein as a band on a membrane.
The target in experiment [2] is DEAD‐box helicase 3 (human (endogenous in DLD-1)) (UniProt O00571). The experiment can be described thus: co-IP; DDX3 antibody immobilised on AminoLink Plus Coupling Resin, incubated with DLD-1 cell lysates overnight at 4°C, western blot; also in cells overexpressing TCONS_00012883 and controls.

Chains of the proteins cited; added tags and fusions are not shown.
UniProt P25490: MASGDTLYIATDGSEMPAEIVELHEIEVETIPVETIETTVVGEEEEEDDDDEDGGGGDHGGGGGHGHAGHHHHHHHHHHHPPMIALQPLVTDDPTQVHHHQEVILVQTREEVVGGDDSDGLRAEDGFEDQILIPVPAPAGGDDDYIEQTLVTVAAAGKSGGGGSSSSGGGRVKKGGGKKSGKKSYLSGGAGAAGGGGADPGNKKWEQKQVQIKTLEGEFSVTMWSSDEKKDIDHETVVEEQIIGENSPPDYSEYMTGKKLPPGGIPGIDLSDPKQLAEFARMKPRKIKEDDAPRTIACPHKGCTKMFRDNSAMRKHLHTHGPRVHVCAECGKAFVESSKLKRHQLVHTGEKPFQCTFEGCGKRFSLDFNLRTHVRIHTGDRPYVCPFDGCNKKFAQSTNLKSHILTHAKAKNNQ
UniProt O00571: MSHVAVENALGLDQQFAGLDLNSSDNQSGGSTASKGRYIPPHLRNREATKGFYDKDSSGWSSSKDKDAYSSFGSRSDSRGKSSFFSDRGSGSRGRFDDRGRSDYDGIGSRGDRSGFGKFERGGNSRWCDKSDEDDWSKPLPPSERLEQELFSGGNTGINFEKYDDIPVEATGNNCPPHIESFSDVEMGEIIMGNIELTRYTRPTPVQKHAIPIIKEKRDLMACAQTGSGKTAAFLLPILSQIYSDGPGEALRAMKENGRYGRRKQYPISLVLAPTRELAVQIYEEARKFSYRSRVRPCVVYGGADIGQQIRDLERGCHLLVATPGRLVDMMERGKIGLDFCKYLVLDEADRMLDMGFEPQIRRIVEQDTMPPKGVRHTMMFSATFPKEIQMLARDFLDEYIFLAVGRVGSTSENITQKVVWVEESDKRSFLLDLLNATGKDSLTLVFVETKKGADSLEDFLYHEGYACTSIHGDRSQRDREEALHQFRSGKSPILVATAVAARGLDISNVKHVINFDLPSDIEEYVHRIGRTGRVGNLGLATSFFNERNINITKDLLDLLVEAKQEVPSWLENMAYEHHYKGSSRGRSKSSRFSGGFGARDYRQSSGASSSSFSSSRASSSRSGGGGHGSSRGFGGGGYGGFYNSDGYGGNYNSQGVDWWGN
UniProt P03372: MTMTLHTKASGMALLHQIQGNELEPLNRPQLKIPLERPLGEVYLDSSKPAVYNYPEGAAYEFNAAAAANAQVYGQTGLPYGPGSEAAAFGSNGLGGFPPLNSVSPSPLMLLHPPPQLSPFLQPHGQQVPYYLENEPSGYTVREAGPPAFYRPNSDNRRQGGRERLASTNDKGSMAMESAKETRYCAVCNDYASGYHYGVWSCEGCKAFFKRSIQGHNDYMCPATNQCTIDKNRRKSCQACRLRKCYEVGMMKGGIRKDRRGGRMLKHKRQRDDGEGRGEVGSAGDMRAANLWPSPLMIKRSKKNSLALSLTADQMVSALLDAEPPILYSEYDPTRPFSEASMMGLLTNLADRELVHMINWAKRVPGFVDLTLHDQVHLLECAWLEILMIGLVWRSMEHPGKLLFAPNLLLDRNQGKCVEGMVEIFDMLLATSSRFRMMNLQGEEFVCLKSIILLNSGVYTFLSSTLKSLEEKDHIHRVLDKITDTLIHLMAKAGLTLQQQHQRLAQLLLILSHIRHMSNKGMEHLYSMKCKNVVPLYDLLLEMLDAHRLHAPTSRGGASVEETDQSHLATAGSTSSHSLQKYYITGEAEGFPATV

Results are given in words; binding and its absence hold for the method and conditions named. Binding seen in cells or lysates may run through a third protein. Some entries that bind do so weakly or less than the wild type.

As for “DEAD‐box helicase 3 (from UniProt O00571 1-662)”, in experiment [1], the binding entry was “binds”. Yin Yang 1 (from UniProt P25490 1-414): the binding result in experiment [2] was “binds”. On the same count and under the same terms, the same measure for “estrogen receptor 1 (from UniProt P03372 1-595)”: “no binding”.

Values taken from PMC7568852.
